Measurements: paper PMC5910412
These are yes or no findings as the source states them, for the method shown. In cells and extracts the contact can be indirect. Some entries that bind do so weakly or less than the wild type. For some of these results: Where a sequence is shown, tags or fusion partners need not be part of it.

Amino acid sequences for entries named in this document (tags omitted). A change or cut given only in a name is not applied to a line headed by its entry.
UniProt P60953: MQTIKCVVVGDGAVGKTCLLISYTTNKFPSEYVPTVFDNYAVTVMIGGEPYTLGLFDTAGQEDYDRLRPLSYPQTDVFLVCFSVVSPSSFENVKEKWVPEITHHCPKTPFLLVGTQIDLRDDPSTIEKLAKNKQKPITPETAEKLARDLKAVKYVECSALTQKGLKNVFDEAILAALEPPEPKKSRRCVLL
UniProt P46940: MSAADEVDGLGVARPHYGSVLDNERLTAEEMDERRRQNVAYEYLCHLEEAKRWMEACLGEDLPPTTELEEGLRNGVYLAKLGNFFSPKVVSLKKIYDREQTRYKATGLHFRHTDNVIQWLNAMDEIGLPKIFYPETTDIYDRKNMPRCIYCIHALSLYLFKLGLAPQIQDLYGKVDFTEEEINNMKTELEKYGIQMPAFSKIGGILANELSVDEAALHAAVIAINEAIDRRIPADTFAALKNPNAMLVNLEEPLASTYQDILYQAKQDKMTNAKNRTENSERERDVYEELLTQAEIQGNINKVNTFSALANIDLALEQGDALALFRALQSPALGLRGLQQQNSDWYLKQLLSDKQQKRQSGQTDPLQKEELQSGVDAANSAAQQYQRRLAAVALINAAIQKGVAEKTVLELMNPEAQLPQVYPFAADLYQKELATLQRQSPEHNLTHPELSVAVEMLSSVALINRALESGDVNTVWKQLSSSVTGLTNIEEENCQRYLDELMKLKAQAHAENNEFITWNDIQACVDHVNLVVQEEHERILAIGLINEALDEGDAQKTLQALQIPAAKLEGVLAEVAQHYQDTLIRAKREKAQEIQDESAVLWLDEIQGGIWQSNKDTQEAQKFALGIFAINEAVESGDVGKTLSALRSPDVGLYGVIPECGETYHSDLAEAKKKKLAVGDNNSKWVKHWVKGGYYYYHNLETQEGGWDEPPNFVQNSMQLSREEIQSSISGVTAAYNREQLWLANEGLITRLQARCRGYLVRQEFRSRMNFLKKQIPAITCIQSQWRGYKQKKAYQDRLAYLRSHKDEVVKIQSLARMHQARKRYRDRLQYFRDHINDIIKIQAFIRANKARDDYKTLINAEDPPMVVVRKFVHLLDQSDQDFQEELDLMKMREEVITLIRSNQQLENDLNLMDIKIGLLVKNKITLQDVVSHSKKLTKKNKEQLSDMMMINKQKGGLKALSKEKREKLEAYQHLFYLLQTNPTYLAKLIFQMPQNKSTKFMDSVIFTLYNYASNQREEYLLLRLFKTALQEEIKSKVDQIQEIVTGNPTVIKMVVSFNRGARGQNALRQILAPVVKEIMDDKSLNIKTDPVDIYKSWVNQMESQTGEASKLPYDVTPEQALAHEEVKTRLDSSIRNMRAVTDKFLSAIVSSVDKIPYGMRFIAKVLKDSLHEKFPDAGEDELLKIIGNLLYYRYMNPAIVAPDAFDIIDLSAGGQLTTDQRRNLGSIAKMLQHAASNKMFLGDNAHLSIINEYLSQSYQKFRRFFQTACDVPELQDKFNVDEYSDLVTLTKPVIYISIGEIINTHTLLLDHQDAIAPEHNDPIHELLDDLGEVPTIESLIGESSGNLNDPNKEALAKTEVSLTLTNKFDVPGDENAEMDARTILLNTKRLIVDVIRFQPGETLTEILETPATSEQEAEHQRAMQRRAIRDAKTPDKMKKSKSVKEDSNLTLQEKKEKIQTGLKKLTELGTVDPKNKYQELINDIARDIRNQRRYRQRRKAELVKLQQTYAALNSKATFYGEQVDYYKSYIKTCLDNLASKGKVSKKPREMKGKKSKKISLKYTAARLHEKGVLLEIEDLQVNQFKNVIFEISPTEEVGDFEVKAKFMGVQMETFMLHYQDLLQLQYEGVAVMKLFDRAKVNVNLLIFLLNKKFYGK

Key:
[1] = molecular target: T1, FLAG-MISP (UniProt Q8IVT2); assay: co-IP; overexpressed GFP-IQGAP1 and FLAG-MISP in asynchronous HEK293T cell lysates; from both sides (GFP trap or FLAG M2 beads)
T1 sequence: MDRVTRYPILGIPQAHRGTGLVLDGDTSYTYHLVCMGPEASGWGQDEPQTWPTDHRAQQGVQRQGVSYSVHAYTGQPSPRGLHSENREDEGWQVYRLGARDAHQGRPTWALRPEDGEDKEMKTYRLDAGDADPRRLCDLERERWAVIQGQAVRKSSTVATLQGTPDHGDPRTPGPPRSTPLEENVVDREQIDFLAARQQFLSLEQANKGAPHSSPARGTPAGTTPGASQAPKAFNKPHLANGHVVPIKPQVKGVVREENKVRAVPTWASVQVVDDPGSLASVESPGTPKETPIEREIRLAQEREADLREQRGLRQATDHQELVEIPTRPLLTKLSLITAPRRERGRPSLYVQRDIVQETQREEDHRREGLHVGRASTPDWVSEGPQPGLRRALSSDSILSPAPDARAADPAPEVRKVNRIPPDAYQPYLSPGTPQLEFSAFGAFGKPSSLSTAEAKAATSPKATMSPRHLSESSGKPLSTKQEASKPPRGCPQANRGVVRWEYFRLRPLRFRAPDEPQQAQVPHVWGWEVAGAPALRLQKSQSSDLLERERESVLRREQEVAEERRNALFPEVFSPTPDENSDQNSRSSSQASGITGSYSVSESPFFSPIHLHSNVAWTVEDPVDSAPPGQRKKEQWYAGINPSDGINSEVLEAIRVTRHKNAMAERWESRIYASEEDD

[2] = molecular target: T2, GFP-MISP (UniProt Q8IVT2); assay: co-IP; GFP-MISP and endogenous IQGAP1 in lysates of taxol-arrested (mitotic) HeLa cells
T2 sequence: T1 sequence

[3] = molecular target: T1, FLAG-MISP; assay: co-IP; sequential IP from HEK293T lysates: FLAG M2 beads, elution with 3xFLAG peptide, then GFP trap beads 2 h at 4 °C; IQGAP1 detected by Western blot
[4] = molecular target: GFP-Cdc42CA, constitutively active form of Cdc42 (Q61L) (UniProt P60953); assay: as above

| binding [1] | binding [2] | binding [3] | binding [4] | Substance |
| --- | --- | --- | --- | --- |
| binds |  |  |  | GFP-IQGAP1 (from UniProt P46940 1-1657) |
|  | binds | binds | binds | endogenous IQGAP1 (from UniProt P46940 1-1657) |
